Source: the supplement of paper PMC7024190
The other results are listed elsewhere or left out. Repeats in this data set agree poorly, so a single value says little.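 Human embryonic kidney cells were transiently transfected with a plasmid bearing a Renilla luciferase gene under the HSV-TK promoter. This first-round screen tests roughly ten thousand compounds for ones that increase reporter output.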

test system: HEK 293FT; assay: log relative Renilla luciferase luminescence (reporter expression vs reference, reference not stated) (log (base not stated)); higher = higher recombinant reporter expression; conditions: 10 µM; time after transfection 48 h
Protocol: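 HEK 293FT cells transiently transfected with pRL-TK (Renilla luciferase) were treated with compounds at 10 uM and luminescence was read about 42 h later. Values are log relative Renilla luminescence (log base and reference not stated). Single-pass screen; 2080 natural products library.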

| SMILES | log |
| --- | --- |
| COc1cc(/C=C/C(=O)NCCc2ccc(O)c(OC)c2)ccc1O [N-trans-Feruloyl-3-methoxytyramine] | -0.467 |
| C[C@H]1[C@H](C)CC[C@]2(C(=O)O)CC[C@]3(C)C(=CC[C@@H]4[C@@]5(C)CC[C@H](O)C(C)(C)[C@@H]5CC[C@]43C)[C@H]12 [Ursolic acid] | -0.189 |
| C[C@@H]1CC[C@]2(C(=O)O)CC[C@]3(C)C(=CC[C@@H]4[C@@]5(C)CCC(=O)C(C)(C)[C@@H]5[C@H](O)C[C@]43C)[C@@H]2[C@]1(C)O [6,19-Dihydroxyurs-12-en-3-oxo-28-oic acid] | -0.619 |
| CC(=O)[C@H]1CC[C@H]2[C@@H]3CC=C4C[C@@H](O)CC[C@]4(C)[C@H]3CC[C@]12C [Pregnenolone] | -0.0636 |
| COc1cc2oc(=O)ccc2cc1CC=C(C)C [Suberosin] | -0.117 |
| C=C1C(OC(C)=O)C(O)C(OC(=O)c2cccnc2)C(C)(C)C=CC(C)C(OC(C)=O)C2(O)CC(C)(OC(C)=O)C(OC(=O)c3ccccc3)C2C1OC(C)=O (stereo not drawn) | -0.186 |
| C=C(C)[C@H](/C=C/[C@@H](C)[C@H]1CC[C@H]2[C@@H]3CC=C4C[C@@H](O)CC[C@]4(C)[C@H]3CC[C@]12C)CC [22-Dehydroclerosterol] | -0.0961 |
| C/C=C1\CN2CCc3c([nH]c4ccccc34)C2CC1C(Cc1c[n+]2c(c3[nH]c4ccccc4c13)CC1C(C(=O)OC)=COC(C)C1C2)C(=O)OC (stereo not drawn) [Serpentinine] | -0.256 |
| COc1cc(C(O)[C@@H]2CO[C@H](c3cc(OC)c(O)c(OC)c3)[C@H]([C@H]3CO[C@@H](C(O)c4ccc(O)c(OC)c4)CO[C@H]3c3cc(OC)c(O)c(OC)c3)CO2)ccc1O (stereo partly drawn) [Phyllostadimer A] | 0.0487 |
| COC1=CC(=O)/C(=C(\C=C\c2ccccc2)OC)C1=O [Methyllucidone] | -0.0923 |
| O=C/C=C/c1ccccc1O [3-(2-Hydroxyphenyl)-2-propenal] | -0.0654 |
| COc1c(OC)c(O)c2c(=O)cc(-c3ccc(O)cc3)oc2c1O [Isothymusin] | -0.14 |
| COC1=CC(=O)C=C(OC)C1(O)CC(C)=O [2,6-Dimethoxy-1-acetonylquinol] | -0.00754 |

A different layout for some results above:
SMILES | log
COc1c(OC)c(O)c2c(=O)cc(-c3ccc(O)cc3)oc2c1O [Isothymusin] | -0.14
COC1=CC(=O)C=C(OC)C1(O)CC(C)=O [2,6-Dimethoxy-1-acetonylquinol] | -0.00754
